Measured values from article PMC8771836.
These are yes or no findings as the source states them, for the method shown. Binding seen in cells or lysates may run through a third protein. Some results given as binding are weak or reduced against the parent protein; the word gives no strength.

Amino acid sequences for entries named in this document (tags omitted).
UniProt Q9NQB0: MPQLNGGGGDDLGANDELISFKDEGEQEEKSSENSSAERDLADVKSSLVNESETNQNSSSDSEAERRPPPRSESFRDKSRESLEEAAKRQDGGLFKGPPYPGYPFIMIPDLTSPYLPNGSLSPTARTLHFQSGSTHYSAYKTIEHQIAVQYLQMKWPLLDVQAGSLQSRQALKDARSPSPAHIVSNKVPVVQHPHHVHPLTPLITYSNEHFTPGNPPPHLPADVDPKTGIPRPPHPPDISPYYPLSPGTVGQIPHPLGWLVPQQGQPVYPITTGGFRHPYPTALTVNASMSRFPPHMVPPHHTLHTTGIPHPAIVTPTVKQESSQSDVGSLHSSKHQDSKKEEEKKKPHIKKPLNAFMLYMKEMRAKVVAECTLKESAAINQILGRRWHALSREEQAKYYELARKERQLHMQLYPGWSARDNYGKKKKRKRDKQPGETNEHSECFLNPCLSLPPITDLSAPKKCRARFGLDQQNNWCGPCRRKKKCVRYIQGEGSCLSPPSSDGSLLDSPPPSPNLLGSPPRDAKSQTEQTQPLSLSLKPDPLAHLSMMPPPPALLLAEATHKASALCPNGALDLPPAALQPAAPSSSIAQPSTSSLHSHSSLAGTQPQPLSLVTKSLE

Target: TCF4 (human (endogenous in NPC cells)) (UniProt Q9NQB0)
Assay: co-IP; NP-40 lysate of NPC cells, about 1-2 mg protein per part (Input, IgG, IP); IgG or IP antibody overnight at 4 C; protein A/G magnetic beads; detection by western blotting

binding: binds
B1: Transducin β-like protein 1 X (protein, UniProt O60907 1-577)
chain: MTELAGASSSCCHRPAGRGAMQSVLHHFQRLRGREGGSHFINTSSPRGEAKMSITSDEVNFLVYRYLQESGFSHSAFTFGIESHISQSNINGTLVPPAALISILQKGLQYVEAEISINEDGTVFDGRPIESLSLIDAVMPDVVQTRQQAFREKLAQQQASAAAAAAAATAAATAATTTSAGVSHQNPSKNREATVNGEENRAHSVNNHAKPMEIDGEVEIPSSKATVLRGHESEVFICAWNPVSDLLASGSGDSTARIWNLNENSNGGSTQLVLRHCIREGGHDVPSNKDVTSLDWNTNGTLLATGSYDGFARIWTEDGNLASTLGQHKGPIFALKWNRKGNYILSAGVDKTTIIWDAHTGEAKQQFPFHSAPALDVDWQNNTTFASCSTDMCIHVCRLGCDRPVKTFQGHTNEVNAIKWDPSGMLLASCSDDMTLKIWSMKQEVCIHDLQAHNKEIYTIKWSPTGPATSNPNSNIMLASASFDSTVRLWDIERGVCTHTLTKHQEPVYSVAFSPDGKYLASGSFDKCVHIWNTQSGNLVHSYRGTGGIFEVCWNARGDKVGASASDGSVCVLDLRK
